The text below walks through data of paper PMC12279197.

The chains behind the UniProt entries cited, without tags or fusion partners.
UniProt P62136: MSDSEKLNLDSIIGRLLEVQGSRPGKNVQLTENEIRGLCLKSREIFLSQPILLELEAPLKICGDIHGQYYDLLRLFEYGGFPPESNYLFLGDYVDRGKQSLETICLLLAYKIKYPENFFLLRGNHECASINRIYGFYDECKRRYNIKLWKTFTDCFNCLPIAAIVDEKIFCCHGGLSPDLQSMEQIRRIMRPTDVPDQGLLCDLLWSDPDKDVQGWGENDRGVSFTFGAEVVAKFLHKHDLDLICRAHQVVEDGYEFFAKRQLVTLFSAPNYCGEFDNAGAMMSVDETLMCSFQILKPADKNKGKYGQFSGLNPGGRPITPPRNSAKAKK
UniProt Q14145: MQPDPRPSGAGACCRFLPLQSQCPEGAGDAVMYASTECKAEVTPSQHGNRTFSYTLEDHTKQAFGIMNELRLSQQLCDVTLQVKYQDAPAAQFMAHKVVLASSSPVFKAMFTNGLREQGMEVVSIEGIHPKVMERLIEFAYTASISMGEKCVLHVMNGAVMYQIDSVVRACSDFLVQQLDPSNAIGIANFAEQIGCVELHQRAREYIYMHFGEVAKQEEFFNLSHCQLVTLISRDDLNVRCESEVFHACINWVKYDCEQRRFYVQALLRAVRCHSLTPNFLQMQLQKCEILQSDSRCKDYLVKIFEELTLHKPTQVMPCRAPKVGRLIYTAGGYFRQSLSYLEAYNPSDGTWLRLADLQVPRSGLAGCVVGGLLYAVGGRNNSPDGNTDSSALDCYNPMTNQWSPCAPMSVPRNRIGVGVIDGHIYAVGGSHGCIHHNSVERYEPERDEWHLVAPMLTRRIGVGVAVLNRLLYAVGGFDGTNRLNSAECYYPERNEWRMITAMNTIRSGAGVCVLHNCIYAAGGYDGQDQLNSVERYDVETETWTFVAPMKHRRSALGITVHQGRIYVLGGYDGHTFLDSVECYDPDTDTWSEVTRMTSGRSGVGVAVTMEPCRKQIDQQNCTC

These are yes or no findings as the source states them, for the method shown. Binding seen in cells or lysates may run through a third protein. These calls come from enrichment with a bait or labelling near it, and not all partners need be listed.

For this test, the target named is serine/threonine‐specific protein phosphatase (PP1A) (human (in Huh7 cells; endogenous or transfected not stated)) (UniProt P62136). The experiment in a line: affinity purification with mass spectrometry; IP from Huh7 cell lysate (IP/Western lysis buffer), antibody overnight at 4°C, protein A/G magnetic beads 6 h at 4°C, LC-MS/MS.

“Kelch‐like ECH‐associated protein (Keap1) (from UniProt Q14145 1-624)”: the binding entry is “binds”.
